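Selective DUX4 reporter inhibition in doxycycline-induced 293T-iDUX4 cells, scored as Gaussia percent activity minus Italica percent activity, after a 24-hour treatment.
The test concentration is not given here.
Percent difference between the Gaussia and Italica channels; more negative values mean more selective suppression of the DUX4 reporter, and higher values mean less activity.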

Values are in %.
The controls that fix the scale are not given here.
Common to all entries: measured here: selective DUX4 reporter inhibition.
Part of the compounds only, not a random draw; the main read-out is not listed here.

- COc1cccc(-c2ccc3c(c2)[C@@H]2[C@@H](CCN2C(=O)NC2CCCC2)[C@@H](CO)N3C)c1 : Gaussia minus Italica difference 18.87%
- COc1ccc(S(=O)(=O)N2CCCCN3[C@@H](CO)[C@H](c4ccc(C5=CCCC5)cc4)[C@@H]3C2)cc1 : Gaussia minus Italica difference -7.283%
- COc1cccc(-c2ccc3n(c2=O)C[C@H]2[C@H](CO)[C@@H](C(=O)N(C)C)N(C(=O)C4CCC4)[C@@H]32)c1 : Gaussia minus Italica difference -13.91%
- COc1ccc2c3c(n(C)c2c1)[C@@H](CO)N(CC1CC1)CC31CN(S(=O)(=O)c2cccs2)C1 : Gaussia minus Italica difference -4.515%
- CS(=O)(=O)N1CC(=O)N2[C@H](C1)[C@@H](c1ccc(C#Cc3ccccc3)cc1)[C@@H]2CO : Gaussia minus Italica difference 15.3%
- C[C@H]1CN([C@@H](C)CO)C(=O)c2c(c3ccccc3n2C)-c2ccccc2CO[C@H]1CN(C)Cc1cccc(C(F)(F)F)c1 : Gaussia minus Italica difference 4.152%
- O=S(=O)(c1cccs1)N1CCCCN2[C@H](CO)[C@H](c3ccc(-c4ccccc4)cc3)[C@@H]2C1 : Gaussia minus Italica difference -9.639%
- O=C(Nc1cccc(F)c1)N1CCCCN2[C@H](CO)[C@@H](c3ccc(-c4ccncc4)cc3)[C@@H]2C1 : Gaussia minus Italica difference -6.182%
- C[C@H](CO)N1C[C@H](C)[C@H](CN(C)C(=O)N[C@H](C)c2ccccc2)OCc2ccccc2-c2c(n(C)c3ccccc23)C1=O : Gaussia minus Italica difference 15.79%
- CN(C)C(=O)c1ccc(-c2ccc3c(c2)[C@@H]2[C@@H](CCN2C(=O)c2ccc(F)cc2)[C@H](CO)N3C)cc1 : Gaussia minus Italica difference 13.46%
- COC(=O)C[C@H]1C[C@H]2c3cc(NC(=O)Nc4ccc(C(F)(F)F)cc4)ccc3O[C@H]2[C@H](CO)O1 : Gaussia minus Italica difference -8.912%
- CN1C(=O)c2cc(NC(=O)c3ccc(C(F)(F)F)cc3)ccc2OC[C@H]2O[C@H](CC(=O)NC3Cc4ccccc4C3)CC[C@H]21 : Gaussia minus Italica difference -1.09%
- COc1cccc(C#Cc2ccc([C@@H]3[C@H]4CN(S(=O)(=O)c5ccccc5C)CC(=O)N4[C@H]3CO)cc2)c1 : Gaussia minus Italica difference 11.07%
- N#Cc1cccc(-c2ccc3c(c2)[C@H]2[C@H](CCN2S(=O)(=O)c2ccccc2)[C@@H](CO)N3)c1 : Gaussia minus Italica difference -8.581%
- COc1ccc(C#Cc2ccc([C@@H]3[C@H](CO)N4CCCCN(S(=O)(=O)c5ccccc5)C[C@@H]34)cc2)cc1 : Gaussia minus Italica difference -10.99%
- N#C[C@H]1[C@@H](c2ccccc2C2=CCCC2)[C@H](CO)N1S(=O)(=O)c1cccc(F)c1 : Gaussia minus Italica difference -3.588%
- C[C@H](NC(=O)C[C@@H]1CC[C@H]2[C@@H](COC[C@@H](O)CN2C(=O)Nc2cccc(Cl)c2)O1)c1ccccc1 : Gaussia minus Italica difference -8.39%
- Cc1ccccc1-c1ccc([C@H]2[C@H]3CN(S(=O)(=O)Cc4ccccc4)CCCCN3[C@H]2CO)cc1 : Gaussia minus Italica difference -21.99%
- O=C(C[C@H]1C[C@H]2c3cc(NS(=O)(=O)c4ccc(F)cc4)ccc3O[C@H]2[C@@H](CO)O1)NCc1ccc(Oc2ccccc2)cc1 : Gaussia minus Italica difference 7.252%
- Cc1ccccc1S(=O)(=O)N1CC[C@@H]2[C@H](CO)Nc3ccc(-c4cccc(C#N)c4)cc3[C@@H]21 : Gaussia minus Italica difference 5.092%
- CO[C@@H]1CN(C)C(=O)c2cc(NC(=O)c3ccc4c(c3)OCO4)ccc2OC[C@H](C)N(CCC(F)(F)F)C[C@@H]1C : Gaussia minus Italica difference -16.11%
- COc1ccc2c3c([nH]c2c1)[C@@H](CO)N(C(=O)NC(C)C)CC31CN(Cc2ccc(F)cc2)C1 : Gaussia minus Italica difference -8.593%
- COc1cccc(CN2CC3(C2)CN(C(=O)C2CC2)[C@@H](CO)c2[nH]c4cc(OC)ccc4c23)c1 : Gaussia minus Italica difference -17.84%

Once more, the final 3:

structure,Gaussia minus Italica difference (%)
CO[C@@H]1CN(C)C(=O)c2cc(NC(=O)c3ccc4c(c3)OCO4)ccc2OC[C@H](C)N(CCC(F)(F)F)C[C@@H]1C,-16.11
COc1ccc2c3c([nH]c2c1)[C@@H](CO)N(C(=O)NC(C)C)CC31CN(Cc2ccc(F)cc2)C1,-8.593
COc1cccc(CN2CC3(C2)CN(C(=O)C2CC2)[C@@H](CO)c2[nH]c4cc(OC)ccc4c23)c1,-17.84

From PubChem BioAssay record AID1224904 (Broad Institute, 2016).